Assay [1] deals with Neuroplastin (rat (endogenous in INS-1 832/13)) (UniProt P97546). In words: co-IP; endogenous proteins in INS-1 832/13 cells; TRAF6 quantified as precipitated with NPTN; Nptn KO cells as control; for TRAF6, cells with or without cytokine mix (5 ng/mL IL-1β + 100 ng/mL IFNγ) for 6 h.
Assay [2] has the same target. The assay is described as above. The source holds these as a separate data set.
Assay [3] has the same target. In words: co-IP; endogenous NPTN and TRAF6 in Nptn WT INS-1 832/13 cells treated with or without cytokine mix (5 ng/mL IL-1β + 100 ng/mL IFNγ) and MANF proteins (5 µg/mL) for 6 h; TRAF6 precipitated with NPTN quantified.

By UniProt entry, the sequences of proteins in these tests, tags left out. Where a name states a change or a piece, a line headed by the entry shows the natural chain unless it says otherwise.
UniProt P97546: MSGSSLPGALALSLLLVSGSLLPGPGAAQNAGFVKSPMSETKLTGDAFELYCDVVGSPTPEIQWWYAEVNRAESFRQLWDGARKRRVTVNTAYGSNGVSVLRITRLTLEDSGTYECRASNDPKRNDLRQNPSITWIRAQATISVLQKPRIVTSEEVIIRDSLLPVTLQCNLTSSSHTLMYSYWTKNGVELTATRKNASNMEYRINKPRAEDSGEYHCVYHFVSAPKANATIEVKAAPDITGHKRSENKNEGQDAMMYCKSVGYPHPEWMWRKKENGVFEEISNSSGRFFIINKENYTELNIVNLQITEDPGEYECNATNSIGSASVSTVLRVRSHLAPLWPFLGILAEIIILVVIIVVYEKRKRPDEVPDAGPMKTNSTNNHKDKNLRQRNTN
UniProt P11506: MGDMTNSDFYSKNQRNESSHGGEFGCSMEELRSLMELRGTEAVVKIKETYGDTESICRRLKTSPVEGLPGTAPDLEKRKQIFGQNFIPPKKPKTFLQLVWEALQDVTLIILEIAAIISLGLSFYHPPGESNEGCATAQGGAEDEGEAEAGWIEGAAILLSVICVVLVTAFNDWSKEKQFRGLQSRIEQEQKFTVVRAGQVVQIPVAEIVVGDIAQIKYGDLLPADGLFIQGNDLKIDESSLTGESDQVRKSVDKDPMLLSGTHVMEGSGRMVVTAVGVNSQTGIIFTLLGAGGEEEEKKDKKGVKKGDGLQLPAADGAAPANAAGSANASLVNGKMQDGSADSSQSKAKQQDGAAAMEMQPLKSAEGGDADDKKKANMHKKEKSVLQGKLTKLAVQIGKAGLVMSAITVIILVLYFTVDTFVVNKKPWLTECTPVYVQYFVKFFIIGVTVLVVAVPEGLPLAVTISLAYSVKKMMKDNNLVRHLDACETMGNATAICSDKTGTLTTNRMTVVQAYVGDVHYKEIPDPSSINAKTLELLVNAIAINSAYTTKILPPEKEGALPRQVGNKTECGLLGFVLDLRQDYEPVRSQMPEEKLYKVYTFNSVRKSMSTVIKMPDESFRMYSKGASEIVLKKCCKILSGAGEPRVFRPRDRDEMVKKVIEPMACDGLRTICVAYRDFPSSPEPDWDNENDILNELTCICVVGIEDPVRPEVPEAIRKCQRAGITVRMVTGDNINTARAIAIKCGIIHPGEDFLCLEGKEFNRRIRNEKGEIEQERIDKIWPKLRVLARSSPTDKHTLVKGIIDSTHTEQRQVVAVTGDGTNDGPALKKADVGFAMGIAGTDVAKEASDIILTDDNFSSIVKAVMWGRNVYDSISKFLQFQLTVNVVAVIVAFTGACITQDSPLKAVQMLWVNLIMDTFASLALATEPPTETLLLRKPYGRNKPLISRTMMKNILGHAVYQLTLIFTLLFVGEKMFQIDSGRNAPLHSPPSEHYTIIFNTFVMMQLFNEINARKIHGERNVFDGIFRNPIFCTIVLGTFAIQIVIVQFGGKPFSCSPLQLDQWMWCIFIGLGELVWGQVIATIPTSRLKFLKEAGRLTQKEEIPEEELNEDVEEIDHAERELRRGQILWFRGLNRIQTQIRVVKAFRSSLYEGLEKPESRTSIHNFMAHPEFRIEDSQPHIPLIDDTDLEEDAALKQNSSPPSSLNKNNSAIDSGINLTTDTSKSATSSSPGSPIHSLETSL

These are yes or no findings as the source states them, for the method shown. In cells and extracts the contact can be indirect. Binding can be weak; no strength is given.

On to “plasma membrane ATPase isoform PMCA2 (from UniProt P11506 1-1243)”, for which, in assay [1], the binding result was “binds”.

B1: TNF receptor-associated factor 6 (protein, UniProt B5DF45 1-530)
chain: MSLLNCENSCASSQSSSDCCAAMANSCSAAMKDDSVSGCVSTGNLSSSFMEEIQGYDVEFDPPLESKYECPICLMALREAVQTPCGHRFCKACITKSIRDAGHKCPVDNEILLENQLFPDNFAKREILSLTVKCPNKGCVQKMELRHLEDHQVHCEFALVICPQCQRFFQKCQINKHIIEDCPRRQVSCVNCAVPMPYEEKEIHDQSCPLANIICEYCGTILIREQMPNHYDLDCPTAPVPCTFSVFGCHEKMQRNHLARHLQENTQLHMRLLAQAVHNVNLSLRPCDASSPSRGCRPEDPNYEETVKQLEGRLVRQDHQIRELTAKMETQSMHVSELKRTIRSLEDKVAEMEAQQCNGIYIWKIGNFGMHLKSQEEERPVVIHSPGFYTGRPGYKLCMRLHLQLPTAQRCANYISLFVHTMQGEYDSHLPWPFQGTIRLTILDQSEAVIRQNHEEVMDAKPELLAFQRPTIPRNPKGFGYVTFMHLEALRQGTFIKDDTLLVRCEVSTRFDMGGLRKEGFQPRSTDAGV
As to B1, the binding entry in assay [2] and in assay [3] was “binds” each time.
